The record followed here is publication PMC2820462, “Inhibition of receptor tyrosine kinase signalling by small molecule agonist of T-cell protein tyrosine phosphatase” (BMC Cancer, 2010).

For experiment [1], the target named is T1, T-cell protein tyrosine phosphatase, 45 kDa form (TC45) (UniProt P17706).
T1 sequence: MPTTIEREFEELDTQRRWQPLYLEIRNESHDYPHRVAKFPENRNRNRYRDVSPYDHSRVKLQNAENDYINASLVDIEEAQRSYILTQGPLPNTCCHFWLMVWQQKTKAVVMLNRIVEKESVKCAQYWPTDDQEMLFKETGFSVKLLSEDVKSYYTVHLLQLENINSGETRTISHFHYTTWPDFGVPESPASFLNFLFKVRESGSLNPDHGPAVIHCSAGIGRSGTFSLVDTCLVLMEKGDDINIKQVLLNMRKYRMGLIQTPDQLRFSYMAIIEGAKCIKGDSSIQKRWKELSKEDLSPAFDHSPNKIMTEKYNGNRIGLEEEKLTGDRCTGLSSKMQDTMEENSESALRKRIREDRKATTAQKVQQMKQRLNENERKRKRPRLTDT
In words: ELISA; biotin-α1 cytoplasmic tail (2.5 μM) held on streptavidin plate; purified TC45 added alone or with 11 μM soluble α1-cyt or α2-cyt peptide, room temperature 1 h; bound TC45 detected with anti-TCPTP antibody CF4 and HRP; both purified.

In experiment [2] the target is T2, biotinylated integrin α1 cytoplasmic tail peptide (biotin-…).
T2 sequence (peptide, biotin on the N-terminus): WKIGFFKRPLKKKMEK
The description is as above.

Results are given in words; binding and its absence hold for the method and conditions named. Some entries that bind do so weakly or less than the wild type.

RPLKKKMEK [α1-cyt peptide (α1 cytoplasmic specific sequence lacking the conserved domain, RPLKKKMEK)]: in experiment [1], the binding result is “binds”.

B1: T-cell protein tyrosine phosphatase, 45 kDa form (TC45) (enzyme, UniProt P17706-2 1-387)
chain: T1 sequence
As for B1, the binding entry in experiment [2] is reported as “binds”.
